Source: the supplement of paper PMC12823440, “Inhibitors supercharge kinase turnover through native proteolytic circuits” (Nature, 2025)
Structures can show the parent of a compound that is named as a salt. This is one part of the list. The calls rarely recur for the same compound in another form.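 In K562 cells expressing nanoluciferase-fused kinases, luminescence was recorded at 4 h intervals between 2 and 18 h, normalized as percent of control with DMSO at 100% and a positive control at 0%. A significant (2 sigma) signal drop marks a time point as decreased. The authors' rule for a hit is not shown and takes in more than the number of time points.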

Chains of the proteins cited; added tags and fusions are not shown. Lines headed by an entry give the natural chain unless they say otherwise; changes in a name come on top.
UniProt P41240: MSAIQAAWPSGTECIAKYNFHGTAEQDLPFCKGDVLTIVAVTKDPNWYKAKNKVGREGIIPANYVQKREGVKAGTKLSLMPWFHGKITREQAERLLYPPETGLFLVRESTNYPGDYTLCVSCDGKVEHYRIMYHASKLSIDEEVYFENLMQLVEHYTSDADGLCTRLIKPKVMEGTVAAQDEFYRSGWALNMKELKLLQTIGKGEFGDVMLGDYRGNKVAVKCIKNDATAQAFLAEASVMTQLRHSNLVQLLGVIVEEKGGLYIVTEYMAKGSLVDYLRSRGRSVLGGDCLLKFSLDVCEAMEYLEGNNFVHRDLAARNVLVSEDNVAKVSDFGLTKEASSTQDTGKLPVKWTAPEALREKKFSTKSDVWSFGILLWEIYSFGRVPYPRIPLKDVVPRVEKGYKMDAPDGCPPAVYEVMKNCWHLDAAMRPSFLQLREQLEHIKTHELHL
UniProt P48729: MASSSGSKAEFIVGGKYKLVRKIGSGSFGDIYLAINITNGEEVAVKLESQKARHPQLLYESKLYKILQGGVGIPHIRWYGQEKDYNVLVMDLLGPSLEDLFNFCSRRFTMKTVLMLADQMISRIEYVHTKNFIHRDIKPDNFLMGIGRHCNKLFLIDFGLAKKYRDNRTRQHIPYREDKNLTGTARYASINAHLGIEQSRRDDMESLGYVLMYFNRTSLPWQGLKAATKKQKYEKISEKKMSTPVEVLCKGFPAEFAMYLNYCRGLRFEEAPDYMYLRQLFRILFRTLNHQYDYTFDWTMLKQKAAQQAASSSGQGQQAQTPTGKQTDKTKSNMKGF

What follows are compounds tested against CSK (UniProt P41240) (assay: kinase-Nluc reporter destabilization hit call (1 = scored as downregulated) (binary); higher = compound decreases kinase abundance). Details: 10 µM; K562; 2-18 h.

kinase-Nluc reporter destabilization hit call, inactive:
OCCn1cc(-c2cnc3nnn(Cc4ccc5ncccc5c4)c3n2)cn1 0
CCN(CC)CC(=O)Nc1c(C)cccc1C [Lidocaine] 0
CCS(=O)(=O)N1CCN(c2ccc(Nc3ncc(C(N)=O)c(NC4CC4)n3)cc2)CC1 [Cerdulatinib] 0
C#Cc1cccc(Nc2ncnc3cc(OCCOC)c(OCCOC)cc23)c1 [Erlotinib (Hydrochloride)] 0
O=C(c1ccc(F)c(F)c1Nc1ccc(I)cc1F)N1CC(O)([C@@H]2CCCCN2)C1 [Cobimetinib] 0
CC(C)(C)n1nc(-c2cccc3ccccc23)c2c(N)ncnc21 [1-Naphthyl PP1 (hydrochloride)] 0
CC(=O)c1c(C)c2cnc(Nc3ccc(N4CCNCC4)cn3)nc2n(C2CCCC2)c1=O [Palbociclib (isethionate)] 0

The compounds below were run against CSNK1A1 (UniProt P48729) in the same assay as above. Details: 2 µM; K562; 2-18 h.

kinase-Nluc reporter destabilization hit call, inactive:
CCc1nc(C(N)=O)c(Nc2ccc(N3CCC(N4CCN(C)CC4)CC3)c(OC)c2)nc1NC1CCOCC1 [Gilteritinib] 0
CCc1nc(C(N)=O)c(Nc2ccc(N3CCC(N4CCN(C)CC4)CC3)c(OC)c2)nc1NC1CCOCC1 [Gilteritinib hemifumarate] 0
Cc1[nH]c(/C=C2\C(=O)Nc3ccc(F)cc32)c(C)c1C(=O)NCCN1CCCC1 [Toceranib (phosphate)] 0
Cc1[nH]c(/C=C2\C(=O)Nc3ccc(F)cc32)c(C)c1C(=O)NCCN1CCCC1 [Toceranib] 0

Same assay, conditions: 2.5 µM; K562; 2-18 h

kinase-Nluc reporter destabilization hit call, inactive:
C=CC(=O)Nc1cc(Nc2nccc(-c3cn(C)c4ccccc34)n2)c(OC)cc1N(C)CCN(C)C [Osimertinib mesylate] 0
c1cc(-c2cnn3cc(-c4ccc(OCCN5CCCCC5)cc4)cnc23)ccn1 [Dorsomorphin] 0
CN(C)C/C=C/C(=O)Nc1cc2c(Nc3ccc(F)c(Cl)c3)ncnc2cc1O[C@H]1CCOC1 [Afatinib (dimaleate)] 0
C=CC(=O)Nc1cc(Nc2nccc(-c3cn(C)c4ccccc34)n2)c(OC)cc1N(C)CCN(C)C [Osimertinib] 0
CN(C)C(=O)c1cc2cnc(Nc3ccc(N4CCNCC4)cn3)nc2n1C1CCCC1 [Ribociclib hydrochloride] 0
COc1ccc(S(=O)(=O)Nc2ccccc2CN(C)C/C=C/c2ccc(Cl)cc2)cc1 [KN-92 (hydrochloride)] 0
COc1ccc(S(=O)(=O)Nc2ccccc2CN(C)C/C=C/c2ccc(Cl)cc2)cc1 [KN-92 (phosphate)] 0

2 consecutive entries out of the list so far, for reference:
kinase-Nluc reporter destabilization hit call, inactive:
COc1ccc(S(=O)(=O)Nc2ccccc2CN(C)C/C=C/c2ccc(Cl)cc2)cc1 [KN-92 (hydrochloride)] 0
COc1ccc(S(=O)(=O)Nc2ccccc2CN(C)C/C=C/c2ccc(Cl)cc2)cc1 [KN-92 (phosphate)] 0
